In PubChem BioAssay AID540275 (National Center for Advancing Translational Sciences (NCATS), 2011):
Screen size: about 320,000 compounds; about 620 (0.19%) were called active. The shares of active, inactive and inconclusive entries below differ from those in the screen. Rule as the data show it: active = activation above about 80%; inconclusive = between about 30% and that limit; inactive = weaker than that.

By UniProt entry, the sequences of proteins in these tests, tags left out.
UniProt Q8NER1, whole entry, looked up: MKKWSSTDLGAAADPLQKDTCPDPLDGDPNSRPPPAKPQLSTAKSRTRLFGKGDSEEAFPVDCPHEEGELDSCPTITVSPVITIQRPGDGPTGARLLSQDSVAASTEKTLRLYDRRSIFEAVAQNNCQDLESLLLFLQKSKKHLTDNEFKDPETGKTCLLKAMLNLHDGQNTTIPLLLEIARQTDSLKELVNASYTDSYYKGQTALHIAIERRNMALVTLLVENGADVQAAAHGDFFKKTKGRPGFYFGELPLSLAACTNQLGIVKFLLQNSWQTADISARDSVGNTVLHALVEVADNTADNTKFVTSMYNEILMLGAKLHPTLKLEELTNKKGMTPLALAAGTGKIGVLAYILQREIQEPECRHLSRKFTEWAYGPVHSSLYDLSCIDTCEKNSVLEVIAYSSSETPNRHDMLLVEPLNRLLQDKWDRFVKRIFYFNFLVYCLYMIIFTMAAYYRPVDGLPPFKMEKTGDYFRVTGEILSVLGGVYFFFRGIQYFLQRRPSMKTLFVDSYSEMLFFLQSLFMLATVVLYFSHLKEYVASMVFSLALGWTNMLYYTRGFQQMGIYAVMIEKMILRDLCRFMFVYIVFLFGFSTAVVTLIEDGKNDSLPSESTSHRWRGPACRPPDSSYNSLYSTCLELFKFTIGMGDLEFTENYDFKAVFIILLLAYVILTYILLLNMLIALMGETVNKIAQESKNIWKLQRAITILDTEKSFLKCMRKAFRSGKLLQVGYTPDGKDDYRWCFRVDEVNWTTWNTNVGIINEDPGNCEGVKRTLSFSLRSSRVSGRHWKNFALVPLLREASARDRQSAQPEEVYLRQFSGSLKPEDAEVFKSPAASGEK

target: Transient receptor potential cation channel subfamily V member 1 (Homo sapiens) (UniProt Q8NER1); assay: HTS Assay for Compounds that Act as Agonists of the Vanilloid Receptor 1; details: TRPV1-expressing cells, Fluo-8 calcium influx, agonist mode; at 8.33 µM, active compounds read high; also: 0% is about no effect
How it was run: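 Cells expressing TRPV1 were dye-loaded with Fluo-8 and read kinetically: 10 s baseline, 3 min after compound (agonist portion), then 2 min after EC20 capsaicin (allosteric enhancer portion). Calcium-bound dye fluorescence at 480/520 nm.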

SMILES | activation
COc1ccc2[nH]c(C)c(CCNC(=S)Nc3ccc(F)cc3)c2c1 | inactive: 7.55%
C[C@H](NC(=O)c1nc[nH]c1C(=O)N[C@@H](C)C(=O)OC(C)(C)C)C(=O)OCc1ccccc1 | inconclusive: 45.6%
O=C(Nc1ccc(Cl)cc1Cl)C1=Cc2ccccc2OC1 | inconclusive: 57.6%
CNC(=O)c1cc2cc(OC)ccc2n1CCN(Cc1ccccc1)Cc1ccccc1 | inconclusive: 42.7%
O=C(Nc1cccc(Cl)c1)c1ccc2ncsc2c1 | inconclusive: 62.1%
Cc1ccc(CSc2nccc(-c3c(C)nc4ccccn34)n2)cc1 | inconclusive: 32.8%
CC1(C)C(CSc2nc3ccccc3[nH]2)C1(Cl)Cl (stereo not drawn) | inconclusive: 64.5%
CCC1CCCCN1C(=S)NC(=O)c1cc(S(=O)(=O)N2CCOCC2)ccc1C (stereo not drawn) | inconclusive: 71%
CC1CCCN(c2ccc([N+](=O)[O-])cc2C(=O)c2ccccc2)C1 (stereo not drawn) | inactive: 22.8%
O=C(NCC(O)c1ccc([N+](=O)[O-])cc1)Nc1ccccc1 (stereo not drawn) | inconclusive: 40.5%
CCC(Sc1ccccn1)C(=O)Nc1cccc([N+](=O)[O-])c1 (stereo not drawn) | inconclusive: 33.3%
Nc1c(-c2ccccc2)cnn1-c1ccc(C(=O)O)cc1 | inactive: 0.724%
Cn1nc(C(=O)Nc2c(-c3ccccc3)nc3sccn23)c2ccccc2c1=O | inactive: -2.78%
CCCCNc1c(-c2cccc(-c3cc(C(C)=O)cs3)c2)nc2cc(C)ccn12 | inactive: 5.23%
CC(C)CCNC(=S)Nc1ccc(Br)cc1 | inconclusive: 48.3%
CCc1ccc2n(-c3ccc(OC)cc3)c([S-])c(C(=O)Nc3cc(C)cc(C)c3)[n+]2c1 | inactive: -1.61%
Cc1ccc(C(=O)NCC(=O)N2CCC(Cc3ccccc3)CC2)cc1 | inconclusive: 34%
O=C(/C=C/c1ccccc1)NC(NC(=S)Nc1cc(Cl)ccc1Cl)C(Cl)(Cl)Cl (stereo not drawn) | inactive: 0.842%
N#CC1=C(N)Oc2cc(O)c(Cl)cc2C1c1ccccc1F (stereo not drawn) | inconclusive: 43.5%
CCOCCOC(=O)c1[nH]c2c(c1C)C(=O)CC(c1cccs1)C2 (stereo not drawn) | inconclusive: 38.5%
CS(=O)(=O)Cc1ccc(C(=O)NC(c2ccccc2)c2ccccc2)cc1 | inconclusive: 34.9%
CC1Sc2ccc(C(=O)NCc3cccc(C(F)(F)F)c3)cc2NC1=O (stereo not drawn) | inconclusive: 51.6%

SMILES | activation
Cc1ccc(-c2cc(C(=O)NCCCN3CCOCC3)c3ccc(Cl)c(C)c3n2)cc1 | inconclusive: 73.7%
O=C(NC(=S)Nc1cccc(Cl)c1N1CCCCC1)c1ccco1 | inconclusive: 36.1%
CCOc1ccc(NC(=O)CSc2nc3ccccc3nc2N2CCOCC2)cc1 | inactive: 21.8%
CCCN(CCC)Cc1c(C(=O)N/N=C/c2ccncc2)nnn1-c1nonc1N | inconclusive: 49.2%
Cc1cc2cc3c(cc2nc1SCC(=O)N1CCOCC1)OCO3 | inactive: 21.8%
CC(C)(C)c1ccc(C(=O)NNC(=O)c2ccccc2Br)cc1 | inconclusive: 74.6%
N#CCc1ccc(NC(=O)c2ccc(S(=O)(=O)N3CCCC3)cc2)cc1 | inconclusive: 62.4%
CCC1(C)Cc2nc3[nH]c(=S)n(-c4ccc(C)cc4)c(=O)c3cc2CO1 (stereo not drawn) | inactive: -4.63%
CC(=O)Nc1cccc(C(=O)NC2CCCc3c2cnn3-c2ccccc2F)c1 (stereo not drawn) | inconclusive: 43%
O=C(C1=C[C@@H](C2CC2)C[C@@H](OCc2ccc(CO)cc2)O1)N1CCN(Cc2ccccc2)CC1 | inconclusive: 60.6%
NC(=O)C1CCN(C(=O)COc2ccc3ccccc3c2)CC1 | inconclusive: 36%
CC(C)(C)C1CCC(OCC(O)CN2CCN(Cc3ccccc3)CC2)CC1 (stereo not drawn) | inactive: -1.79%
CC(C)(Oc1ccc(Cl)cc1)C(=O)Nc1ccncc1 | inconclusive: 61.3%
O=C(CSc1ccc(-c2ccc(Cl)cc2)nn1)Nc1ccc2c(c1)OCCO2 | inconclusive: 49.2%
COC(=O)C1=C(C)N(Cc2ccccc2)C(=NCCc2ccccn2)N[C@H]1c1cccc(C(F)(F)F)c1 | inconclusive: 33.1%
CC(=O)c1cccc(NC(=O)NCCc2c[nH]c3ccccc23)c1 | inactive: -5.42%
Cc1ccc(NC(=O)CCC(=O)N2CCC(C)CC2)c([N+](=O)[O-])c1 | inconclusive: 44.3%
O=C(c1cc(-c2ccccc2)nc2ccccc12)N1CCc2ccccc2C1 | inconclusive: 55%
CC(C)C[C@H](NC(=O)c1[nH]cnc1C(=O)N[C@@H](C)C(=O)OCc1ccccc1)C(=O)OC(C)(C)C | inconclusive: 37.4%
O=C(CN1N=C(c2ccc(Cl)cc2)CCC1=O)NCc1cccs1 | inconclusive: 41.3%
O=C(c1ccc(OC2CCN(CCc3ccccc3)CC2)cc1)N1CCC(CO)CC1 | inactive: 0.191%
CCCOc1cc(NCc2ccccc2)c2ncn(C(C)C)c2c1 | inconclusive: 51.6%

SMILES | activation
CC(=O)Nc1ccc(NC(=O)COC(=O)C2(c3ccc(Cl)cc3)CCCC2)cc1 | inconclusive: 39.2%
O=C(NCc1c(F)cccc1F)c1cc(COc2c(F)cccc2F)on1 | inconclusive: 41.6%
Cc1cc(N/N=C/c2ccc(F)cc2)nc(NCc2ccccc2)n1 | inactive: -1.54%
COc1ccc(C(=O)Nc2cccc(OC(=O)c3ccc(C)c(C)c3)c2)cc1 | inconclusive: 43.4%
C/C(N)=C(/C#N)C(=O)COC(=O)c1ccccc1Cc1ccccc1 | inconclusive: 48.1%
CC(CCc1ccccc1)NC(=O)c1ccc(F)cc1 (stereo not drawn) | inconclusive: 71.6%
Cc1ccc(-c2nn(-c3ccc(F)cc3)cc2C(=O)NCCCN2CCCC2=O)cc1 | inconclusive: 34.2%
Cc1cccc(OCC(=O)Nc2nccs2)c1C | inconclusive: 42.7%
Cc1ccc(Nc2cc(-n3nc(C)cc3C)ncn2)cc1 | inconclusive: 44.4%
CC1=CC(=O)N(c2ccc(C)cc2)C1c1ccc(Cl)cc1 (stereo not drawn) | inconclusive: 31%
O=C(CCN1c2ccccc2Sc2ccccc21)Nc1ccccc1 | inconclusive: 68.3%
O=C(/C=C/NNC(=O)c1ccccc1)c1ccc(Br)cc1 | inconclusive: 32.9%
Cc1cc(C(=O)Nc2sc3c(c2C#N)CCCCC3)cs1 | inconclusive: 67.8%
COc1cccc(CNC(=S)Nc2cc(C)cc(C)c2)c1 | inconclusive: 64.9%
O=C(CCSc1ccc(Cl)cc1)NCc1ccncc1 | active: 86.2%
Cc1ccc(NC2CCCN(C(=O)CCN3CCCCO3)C2)cc1C (stereo not drawn) | inconclusive: 52.8%
O=C(Nc1cccc(C(=O)N2CCCc3ccccc32)c1)c1ccccc1 | inconclusive: 44.1%
CC(C(=O)OCC(=O)N1CCN(c2ccccc2)CC1)N1C(=O)c2ccccc2C1=O (stereo not drawn) | inactive: -0.593%
O=C(Nc1nc(-c2ccccc2)ns1)c1ccncc1 | inconclusive: 51.1%
CCOC(=O)N1CCN(C2=C(NS(=O)(=O)c3ccc(C)cc3)C(=O)c3ccccc3C2=O)CC1 | inconclusive: 47.6%
S=c1[nH]nc(-c2ccc3ccccc3n2)n1-c1ccc(Cl)cc1 | inactive: 1.56%
CN(CC(=O)Nc1cccc(S(=O)(=O)N2CCCCC2)c1)Cc1ccc(F)cc1 | inconclusive: 40.6%

Part of the list above, reformatted.
SMILES	activation
CC(CCc1ccccc1)NC(=O)c1ccc(F)cc1 (stereo not drawn)	inconclusive: 71.6%
Cc1ccc(-c2nn(-c3ccc(F)cc3)cc2C(=O)NCCCN2CCCC2=O)cc1	inconclusive: 34.2%
Cc1cccc(OCC(=O)Nc2nccs2)c1C	inconclusive: 42.7%
Cc1ccc(Nc2cc(-n3nc(C)cc3C)ncn2)cc1	inconclusive: 44.4%
CC1=CC(=O)N(c2ccc(C)cc2)C1c1ccc(Cl)cc1 (stereo not drawn)	inconclusive: 31%
O=C(CCN1c2ccccc2Sc2ccccc21)Nc1ccccc1	inconclusive: 68.3%
O=C(/C=C/NNC(=O)c1ccccc1)c1ccc(Br)cc1	inconclusive: 32.9%
Cc1cc(C(=O)Nc2sc3c(c2C#N)CCCCC3)cs1	inconclusive: 67.8%
COc1cccc(CNC(=S)Nc2cc(C)cc(C)c2)c1	inconclusive: 64.9%
O=C(CCSc1ccc(Cl)cc1)NCc1ccncc1	active: 86.2%
Cc1ccc(NC2CCCN(C(=O)CCN3CCCCO3)C2)cc1C (stereo not drawn)	inconclusive: 52.8%
O=C(Nc1cccc(C(=O)N2CCCc3ccccc32)c1)c1ccccc1	inconclusive: 44.1%
CC(C(=O)OCC(=O)N1CCN(c2ccccc2)CC1)N1C(=O)c2ccccc2C1=O (stereo not drawn)	inactive: -0.593%
O=C(Nc1nc(-c2ccccc2)ns1)c1ccncc1	inconclusive: 51.1%
CCOC(=O)N1CCN(C2=C(NS(=O)(=O)c3ccc(C)cc3)C(=O)c3ccccc3C2=O)CC1	inconclusive: 47.6%
S=c1[nH]nc(-c2ccc3ccccc3n2)n1-c1ccc(Cl)cc1	inactive: 1.56%

Continuation:

SMILES | activation
COc1cc(/C=N/NC(=O)c2ccc(CN3C(=O)c4cccc5cccc3c45)cc2)cc(OC)c1O | inconclusive: 60.6%
CCCNC(=O)C1CN(S(=O)(=O)c2ccc(C)cc2)c2ccccc2O1 (stereo not drawn) | inconclusive: 54%
Cc1cccc2c1-c1sc(C(=O)Nc3ccccc3N3CCN(C)CC3)cc1CO2 | inactive: 10.1%
CCN(CC)S(=O)(=O)c1ccc(C(=O)NCC2CCCCC2)cc1 | inconclusive: 71.3%
CC(C)(C)c1cc(CN(CCO)CCO)c(O)c(C(C)(C)C)c1 | inconclusive: 32.4%
O=C(CCC(=O)N1CCCC(Nc2ccccc2)C1)c1ccc(F)cc1 (stereo not drawn) | active: 86.5%
CCc1ccc(CCC(=O)Nc2ccc(C(C)=O)cc2)o1 | inconclusive: 45.8%
COc1ccc(N2CCN(C(=O)C3CCC(Cn4c(=S)[nH]c5ccccc5c4=O)CC3)CC2)cc1 (stereo not drawn) | inactive: 3.98%
CCCCNC(=O)c1cc(-c2ccc(F)cc2)on1 | inactive: -0.816%
CCN(c1ccccc1)S(=O)(=O)c1ccc(C(=O)Nc2nnc(CSC)o2)cc1 | inactive: -4.24%
O=C(NCC1CCCO1)c1cn(-c2ccccc2)nc1-c1ccc(F)cc1 (stereo not drawn) | inconclusive: 74.5%
CC(C)Cn1nc(NC(=O)c2cccs2)c2cc3ccccc3nc21 | inconclusive: 67.6%
CC(=O)c1c(C)[nH]c(C(=O)CSc2nnc(-c3ccco3)n2Cc2ccccc2)c1C | inconclusive: 52.6%
COc1ccc(Nc2nnc(SCC3CCCCO3)s2)cc1 (stereo not drawn) | inconclusive: 47.8%
COc1ccc2cc1Oc1ccc(cc1)C[C@H]1c3c(cc4c(c3Oc3cc5c(cc3OC)CCN(C)[C@@H]5C2)OCO4)CCN1C | inactive: 3.62%
Cn1c(-c2sccc2OCc2ccccc2)n[nH]c1=S | inactive: 1.89%
Cc1ccc(C(=O)N2CCCC(Nc3ccc(C(C)C)cc3)C2)cn1 (stereo not drawn) | inconclusive: 64.6%
Cc1ccccc1OCC(=O)N/N=C/c1ccc([N+](=O)[O-])o1 | inactive: 8.02%
CCCc1nc2ccccc2c(=O)n1/N=C/c1ccccc1O | inconclusive: 48.6%
COCCCn1c(=O)c2sccc2n(Cc2cccc(C)c2)c1=O | inactive: 5.56%
O=C(Nc1ccc2c(c1)CCC2)c1ccccc1 | inconclusive: 71.2%
CCOC(=O)c1c(/N=C/N(C)C)sc(/C=N/Nc2ccccc2)c1-c1ccccc1Cl | inactive: 1.1%
